Assay results published in the supplement of paper PMC8256030.
“And” between values parts separate entries of the source, which are not always exact repeats. Identical values can stand only once. Counter-ions that a name gives are not always drawn. The list shows a part of the results. This data set is noisy: repeats of one test often differ as much as different tests do.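 HEK293T cells were given each compound shortly before transfection with a reporter in which red mCherry is followed by the SARS-CoV-2 frameshift element and then GFP in the −1 frame, so GFP appears only after frameshifting.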

Test system: HEK293T
Experiment: percent viability (nuclei count) relative to control; higher = more viable cells
Details: 10 µM; 24 h

Row | SMILES | percent viability
1 | COC(=O)N/N=C/c1c[n+]([O-])c2ccccc2[n+]1[O-] [Carbadox] | 69.6%
2 | O=C(O)c1cc(=O)c2c(OCC(O)COc3cccc4oc(C(=O)O)cc(=O)c34)cccc2o1 | 132%
3 | N/C=C1\Cc2ccccc2C1=O [drinidene] | 179%
4 | CN(C/C=C/c1ccccc1)Cc1cccc2ccccc12 | 385%
5 | CCCc1cc(C(N)=S)ccn1 [protionamide] | 230% and 187%
6 | Nc1ccc(/N=N/c2ccccc2)c(N)n1 | 186%
7 | CCCCN(CCCC)CC(O)c1cc(Cl)cc2c1-c1ccc(Cl)cc1/C2=C/c1ccc(Cl)cc1 (stereo not given) [Benflumetol] | 279%
8 | COC(F)(F)C(Cl)Cl [methoxyflurane] | 216%
9 | C[C@]12CCC(=O)C=C1C=C[C@@H]1[C@@H]2CC[C@@]2(C)[C@H]1CC[C@@]21CCC(=O)O1 [canrenone] | 143%
10 | CCCCN1C[C@H](O)[C@@H](O)[C@H](O)[C@H]1CO [miglustat] | 233%
11 | C#CCN(C)Cc1ccccc1 [pargyline] | 154%
12 | O=C(O)Cc1ccc2c(c1)C(=O)c1ccccc1CO2 [isoxepac] | 191%
13 | C=C1/C(=C\C=C2/CCC[C@]3(C)[C@@H]([C@H](C)/C=C/C=C/C(O)(CC)CC)CC[C@@H]23)C[C@@H](O)C[C@@H]1O [seocalcitol] | 150%
14 | COc1cc(C(=O)NCc2ccc(OCCN(C)C)cc2)cc(OC)c1OC [trimethobenzamide] | 214%
15 | COC(=O)[C@H](Cc1ccccc1)NC(=O)[C@@H](N)CC(=O)O | 262%
16 | C#C[C@]1(O)CC[C@H]2[C@@H]3CCc4cc(OC)ccc4[C@H]3CC[C@@]21C [mestranol] | 147%
17 | C#C[C@]1(OC(C)=O)CC[C@H]2[C@@H]3CCC4=CC(=O)CC[C@@H]4[C@H]3CC[C@@]21C | 153%
18 | FCOC(C(F)(F)F)C(F)(F)F [sevoflurane] | 196%
19 | CN1CCN(CCCN2c3ccccc3Sc3ccc(S(=O)(=O)N(C)C)cc32)CC1 [thioproperazine] | 360%
20 | Nc1cc(-c2ccncc2)c[nH]c1=O [amrinone] | 129% and 243%

Row | SMILES | percent viability
21 | CC(C)(C)CC(C)(C)c1ccc(OCCO)cc1 [octoxinol] | 161%
22 | CC1(C)[C@H](C(=O)O)N2C(=O)C[C@H]2S1(=O)=O [sulbactam] | 218%
23 | CCCCCCCC/C=C\CCCCCCCC(=O)NCc1ccc(O)c(OC)c1 [olvanil] | 153%
24 | OC[C@@H](O)[C@@H](O[C@@H]1O[C@H](CO)[C@H](O)[C@H](O)[C@H]1O)[C@H](O)[C@@H](O)CO [lactitol] | 55.8%
25 | CN1CCc2cccc3c2[C@H]1Cc1ccc(O)c(O)c1-3 [(R)-(-)-Apomorphine·HCl] | 338%
26 | NC(=O)c1ccccc1O [salicylamide] | 135%
27 | CCCC1O[C@@H]2C[C@H]3[C@@H]4CCC5=CC(=O)C=C[C@]5(C)[C@H]4[C@@H](O)C[C@]3(C)[C@]2(C(=O)CO)O1 (stereo not given in full) | 141%
28 | CN1CCc2c(c3ccccc3n2Cc2ccccc2)C1 | 415%
29 | COc1ccc(-c2[nH]c3ccccc3c2-c2ccc(OC)cc2)cc1 [indoxole] | 22.1%
30 | O=C(OCC(O)CO)c1ccccc1Nc1ccnc2c(C(F)(F)F)cccc12 (stereo not given) [floctafenine] | 158%
31 | CC(=O)OCC[N+](C)(C)C [acetylcholine chloride] | 302% and 176%
32 | Cn1cncc1[C@@](N)(c1ccc(Cl)cc1)c1ccc2c(c1)c(-c1cccc(Cl)c1)cc(=O)n2C [tipifarnib] | 178%
33 | Cc1cc2c(cc1CC(=O)c1sccc1S(=O)(=O)Nc1onc(C)c1Cl)OCO2 [Sitaxentan] | 253%
34 | Nc1nc(F)nc2c1ncn2[C@@H]1O[C@H](CO)[C@@H](O)[C@@H]1O [fludarabine] | 63%
35 | CCCCOc1ccc(NC(=S)Nc2ccc(N(C)C)cc2)cc1 [N-(4-butoxyphenyl)-N'-[4-(dimethylamino)phenyl]thiourea] | 123%
36 | Cc1ccc(Cl)c(OCC(O)CNC(C)(C)C)c1 (stereo not given) [bupranolol] | 185%
37 | CN(C)CCCn1c(=O)c2ccccc2c2ccccc21 [fantridone] | 167%
38 | Nc1nc(=O)[nH]cc1F | 233%
39 | CNCC[C@@H](Oc1ccccc1C)c1ccccc1 [Atomoxetine, Strattera,Tomoxetin] | 401%
40 | CO/N=C(\C(=O)N[C@@H]1C(=O)N2C(C(=O)O)=C(COC(C)=O)CS[C@H]12)c1csc(N)n1 [Cefotaxime Acid] | 199%
